Measured values: doi:10.1101/2024.09.30.615666
These are yes or no findings as the source states them, for the method shown. Binding seen in cells or lysates may run through a third protein. Some entries that bind do so weakly or less than the wild type. For some of these results: Tags and fused reporters may be left off the sequences shown.

Sequences of proteins named here, by UniProt entry; tags and fusion partners are left off. Residues count along the entry.
UniProt P49790: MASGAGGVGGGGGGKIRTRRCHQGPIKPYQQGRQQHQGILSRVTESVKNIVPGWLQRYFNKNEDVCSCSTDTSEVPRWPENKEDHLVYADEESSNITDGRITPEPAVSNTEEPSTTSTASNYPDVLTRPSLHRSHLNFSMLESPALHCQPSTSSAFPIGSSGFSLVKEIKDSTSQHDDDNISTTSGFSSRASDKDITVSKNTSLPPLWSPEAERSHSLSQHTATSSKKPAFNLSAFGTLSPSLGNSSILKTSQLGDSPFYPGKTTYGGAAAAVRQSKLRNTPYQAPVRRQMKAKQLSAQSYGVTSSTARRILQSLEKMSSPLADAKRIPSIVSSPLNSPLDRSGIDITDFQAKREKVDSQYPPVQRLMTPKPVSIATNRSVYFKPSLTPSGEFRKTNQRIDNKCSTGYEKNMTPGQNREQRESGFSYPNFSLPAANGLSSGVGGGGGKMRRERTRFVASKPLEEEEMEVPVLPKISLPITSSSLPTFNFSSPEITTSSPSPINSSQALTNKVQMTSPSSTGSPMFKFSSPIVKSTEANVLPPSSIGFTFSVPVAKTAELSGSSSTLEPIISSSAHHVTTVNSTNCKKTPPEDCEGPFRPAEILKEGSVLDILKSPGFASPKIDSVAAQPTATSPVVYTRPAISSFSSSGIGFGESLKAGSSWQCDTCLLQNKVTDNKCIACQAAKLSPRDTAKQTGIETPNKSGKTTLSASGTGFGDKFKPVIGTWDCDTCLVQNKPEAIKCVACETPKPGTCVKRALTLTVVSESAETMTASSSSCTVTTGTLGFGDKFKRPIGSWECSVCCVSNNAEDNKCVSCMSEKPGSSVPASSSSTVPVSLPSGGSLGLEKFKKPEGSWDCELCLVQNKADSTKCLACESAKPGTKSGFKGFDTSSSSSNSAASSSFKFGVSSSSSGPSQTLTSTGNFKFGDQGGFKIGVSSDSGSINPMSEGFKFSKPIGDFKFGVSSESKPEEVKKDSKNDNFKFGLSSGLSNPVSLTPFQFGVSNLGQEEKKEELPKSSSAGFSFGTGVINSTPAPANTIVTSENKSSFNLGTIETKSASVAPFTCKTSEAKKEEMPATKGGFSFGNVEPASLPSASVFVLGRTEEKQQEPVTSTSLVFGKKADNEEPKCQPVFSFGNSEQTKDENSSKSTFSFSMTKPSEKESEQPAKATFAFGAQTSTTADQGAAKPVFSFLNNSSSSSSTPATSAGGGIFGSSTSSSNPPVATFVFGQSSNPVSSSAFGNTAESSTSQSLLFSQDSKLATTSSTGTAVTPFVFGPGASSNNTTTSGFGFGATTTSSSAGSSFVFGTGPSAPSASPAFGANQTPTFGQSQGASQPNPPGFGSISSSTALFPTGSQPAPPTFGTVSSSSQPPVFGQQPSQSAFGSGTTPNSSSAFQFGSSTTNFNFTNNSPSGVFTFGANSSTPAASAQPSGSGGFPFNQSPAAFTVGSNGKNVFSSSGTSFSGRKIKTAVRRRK
UniProt P52948, residues 1-880: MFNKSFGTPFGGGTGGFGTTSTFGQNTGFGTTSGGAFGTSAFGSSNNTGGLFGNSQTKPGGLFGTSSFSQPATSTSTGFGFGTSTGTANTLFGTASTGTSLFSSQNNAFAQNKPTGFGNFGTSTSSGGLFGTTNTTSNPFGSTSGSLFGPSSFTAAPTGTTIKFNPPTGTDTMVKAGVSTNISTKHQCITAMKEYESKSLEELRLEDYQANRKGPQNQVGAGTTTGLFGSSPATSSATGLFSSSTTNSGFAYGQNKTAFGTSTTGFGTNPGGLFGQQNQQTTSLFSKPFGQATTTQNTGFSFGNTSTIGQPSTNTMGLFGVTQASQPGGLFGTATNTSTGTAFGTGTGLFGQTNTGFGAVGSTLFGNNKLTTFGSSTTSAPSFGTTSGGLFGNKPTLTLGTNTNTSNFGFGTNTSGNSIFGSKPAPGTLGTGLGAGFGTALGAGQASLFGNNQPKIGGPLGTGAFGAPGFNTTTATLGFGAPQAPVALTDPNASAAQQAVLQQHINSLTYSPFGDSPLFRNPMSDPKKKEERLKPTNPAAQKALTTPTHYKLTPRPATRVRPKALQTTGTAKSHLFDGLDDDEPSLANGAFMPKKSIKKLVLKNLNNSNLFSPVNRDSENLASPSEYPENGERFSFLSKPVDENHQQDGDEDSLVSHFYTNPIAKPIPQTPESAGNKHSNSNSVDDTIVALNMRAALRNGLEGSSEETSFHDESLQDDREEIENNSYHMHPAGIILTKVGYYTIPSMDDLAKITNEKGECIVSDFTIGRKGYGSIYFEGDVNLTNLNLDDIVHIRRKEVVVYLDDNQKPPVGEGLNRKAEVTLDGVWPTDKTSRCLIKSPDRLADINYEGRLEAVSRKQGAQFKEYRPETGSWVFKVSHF
UniProt P12270: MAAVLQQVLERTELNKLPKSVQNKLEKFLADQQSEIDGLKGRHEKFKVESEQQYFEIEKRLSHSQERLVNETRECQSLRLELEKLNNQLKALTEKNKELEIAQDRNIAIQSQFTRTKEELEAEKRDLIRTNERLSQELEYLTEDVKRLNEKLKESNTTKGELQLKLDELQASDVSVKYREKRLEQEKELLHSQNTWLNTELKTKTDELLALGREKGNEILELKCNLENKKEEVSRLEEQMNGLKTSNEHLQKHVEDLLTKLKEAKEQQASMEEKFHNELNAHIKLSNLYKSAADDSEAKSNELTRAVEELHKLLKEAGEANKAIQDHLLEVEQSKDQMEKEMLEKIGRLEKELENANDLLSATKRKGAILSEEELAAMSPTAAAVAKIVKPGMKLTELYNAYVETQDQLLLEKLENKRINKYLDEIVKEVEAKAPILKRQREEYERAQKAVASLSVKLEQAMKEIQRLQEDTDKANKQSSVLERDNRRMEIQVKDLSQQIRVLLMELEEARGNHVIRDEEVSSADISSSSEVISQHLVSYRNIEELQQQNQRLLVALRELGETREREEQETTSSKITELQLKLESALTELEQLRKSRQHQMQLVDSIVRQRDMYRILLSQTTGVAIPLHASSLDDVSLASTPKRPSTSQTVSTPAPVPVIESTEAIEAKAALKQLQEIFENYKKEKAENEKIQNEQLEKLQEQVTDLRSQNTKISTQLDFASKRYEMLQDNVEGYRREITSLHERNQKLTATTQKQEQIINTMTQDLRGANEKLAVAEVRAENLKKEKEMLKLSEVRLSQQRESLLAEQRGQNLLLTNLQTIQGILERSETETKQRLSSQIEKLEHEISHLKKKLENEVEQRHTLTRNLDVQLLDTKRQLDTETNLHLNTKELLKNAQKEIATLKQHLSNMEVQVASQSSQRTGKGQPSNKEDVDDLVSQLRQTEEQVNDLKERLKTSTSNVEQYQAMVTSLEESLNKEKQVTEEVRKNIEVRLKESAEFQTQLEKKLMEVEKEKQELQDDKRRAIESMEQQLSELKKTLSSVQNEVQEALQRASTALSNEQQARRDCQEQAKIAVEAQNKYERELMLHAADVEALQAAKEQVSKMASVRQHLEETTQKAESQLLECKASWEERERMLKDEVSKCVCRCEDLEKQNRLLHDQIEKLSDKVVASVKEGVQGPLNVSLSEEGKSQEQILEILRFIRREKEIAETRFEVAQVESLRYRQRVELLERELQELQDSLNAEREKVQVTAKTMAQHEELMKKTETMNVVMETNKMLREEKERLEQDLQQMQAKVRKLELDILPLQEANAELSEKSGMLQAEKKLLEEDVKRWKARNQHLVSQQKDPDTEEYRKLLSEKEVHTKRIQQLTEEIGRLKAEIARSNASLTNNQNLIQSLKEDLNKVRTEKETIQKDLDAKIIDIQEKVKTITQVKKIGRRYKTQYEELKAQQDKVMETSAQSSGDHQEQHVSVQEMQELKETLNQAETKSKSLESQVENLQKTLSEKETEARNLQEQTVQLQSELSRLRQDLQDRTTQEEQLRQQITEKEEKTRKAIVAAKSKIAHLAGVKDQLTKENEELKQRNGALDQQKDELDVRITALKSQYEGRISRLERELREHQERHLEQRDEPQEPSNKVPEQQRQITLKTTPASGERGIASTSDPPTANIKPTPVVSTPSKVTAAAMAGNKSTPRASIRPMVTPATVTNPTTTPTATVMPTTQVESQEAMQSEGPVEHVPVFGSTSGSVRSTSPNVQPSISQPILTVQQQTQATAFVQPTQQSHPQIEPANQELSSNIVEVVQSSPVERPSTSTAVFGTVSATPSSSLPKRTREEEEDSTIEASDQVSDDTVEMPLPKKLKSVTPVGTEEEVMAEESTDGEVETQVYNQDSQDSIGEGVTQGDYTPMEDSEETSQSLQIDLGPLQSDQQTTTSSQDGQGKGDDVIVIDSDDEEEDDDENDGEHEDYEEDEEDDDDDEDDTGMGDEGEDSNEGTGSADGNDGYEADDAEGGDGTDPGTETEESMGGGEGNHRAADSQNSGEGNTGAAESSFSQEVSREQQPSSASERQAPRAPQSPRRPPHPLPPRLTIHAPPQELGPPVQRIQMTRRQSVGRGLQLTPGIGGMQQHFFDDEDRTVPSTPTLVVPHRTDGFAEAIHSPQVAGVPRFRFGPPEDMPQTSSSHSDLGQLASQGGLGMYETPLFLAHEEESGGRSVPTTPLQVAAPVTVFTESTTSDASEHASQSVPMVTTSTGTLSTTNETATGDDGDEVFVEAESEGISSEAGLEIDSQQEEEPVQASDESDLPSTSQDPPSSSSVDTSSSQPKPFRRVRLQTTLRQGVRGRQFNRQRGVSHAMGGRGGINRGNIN
UniProt Q9UNP9: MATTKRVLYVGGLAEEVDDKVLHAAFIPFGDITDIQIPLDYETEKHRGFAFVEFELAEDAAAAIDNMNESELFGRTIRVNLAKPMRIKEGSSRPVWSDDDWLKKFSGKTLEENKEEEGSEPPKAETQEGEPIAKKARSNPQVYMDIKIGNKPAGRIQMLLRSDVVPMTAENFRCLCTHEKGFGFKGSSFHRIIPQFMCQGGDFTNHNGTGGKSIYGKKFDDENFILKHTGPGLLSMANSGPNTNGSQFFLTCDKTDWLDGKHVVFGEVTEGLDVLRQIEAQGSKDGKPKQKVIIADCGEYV
UniProt Q13838: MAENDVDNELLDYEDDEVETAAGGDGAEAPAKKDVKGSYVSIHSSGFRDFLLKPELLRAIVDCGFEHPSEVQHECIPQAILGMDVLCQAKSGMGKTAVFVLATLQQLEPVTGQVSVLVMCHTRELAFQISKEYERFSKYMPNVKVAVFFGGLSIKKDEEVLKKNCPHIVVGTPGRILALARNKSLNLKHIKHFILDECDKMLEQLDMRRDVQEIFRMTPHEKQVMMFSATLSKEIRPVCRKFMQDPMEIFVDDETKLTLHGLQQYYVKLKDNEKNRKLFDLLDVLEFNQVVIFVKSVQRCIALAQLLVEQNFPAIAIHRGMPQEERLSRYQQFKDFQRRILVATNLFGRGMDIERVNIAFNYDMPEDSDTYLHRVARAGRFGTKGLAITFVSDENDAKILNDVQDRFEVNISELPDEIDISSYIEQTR
UniProt P29590: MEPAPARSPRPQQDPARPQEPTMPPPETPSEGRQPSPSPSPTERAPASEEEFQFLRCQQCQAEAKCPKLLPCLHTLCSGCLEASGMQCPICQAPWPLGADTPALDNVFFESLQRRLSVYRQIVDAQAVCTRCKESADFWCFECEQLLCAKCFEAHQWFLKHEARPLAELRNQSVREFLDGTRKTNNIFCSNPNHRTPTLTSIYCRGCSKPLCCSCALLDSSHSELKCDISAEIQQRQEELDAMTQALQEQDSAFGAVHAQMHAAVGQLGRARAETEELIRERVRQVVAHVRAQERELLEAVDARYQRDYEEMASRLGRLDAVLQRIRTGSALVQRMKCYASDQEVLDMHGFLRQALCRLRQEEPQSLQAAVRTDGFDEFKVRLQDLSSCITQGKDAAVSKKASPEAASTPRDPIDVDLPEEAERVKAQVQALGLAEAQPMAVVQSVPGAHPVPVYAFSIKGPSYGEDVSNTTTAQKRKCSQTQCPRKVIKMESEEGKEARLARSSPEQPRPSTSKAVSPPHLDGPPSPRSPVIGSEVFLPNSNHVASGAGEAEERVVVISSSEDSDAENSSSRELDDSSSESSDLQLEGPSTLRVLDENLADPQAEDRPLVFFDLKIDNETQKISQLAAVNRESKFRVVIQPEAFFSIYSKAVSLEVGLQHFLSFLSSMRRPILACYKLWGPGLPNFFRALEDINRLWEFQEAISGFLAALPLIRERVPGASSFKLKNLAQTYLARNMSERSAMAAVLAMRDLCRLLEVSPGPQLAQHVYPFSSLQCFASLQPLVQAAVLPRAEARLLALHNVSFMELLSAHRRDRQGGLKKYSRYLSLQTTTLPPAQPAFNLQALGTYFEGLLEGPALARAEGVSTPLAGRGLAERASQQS

Experiments:
[1] = target: Nup153 (human (endogenous in Jurkat and HEK293T)) (UniProt P49790); test: proximity ligation
[2] = target: eGFP:Nup153 (UniProt P49790); test: co-IP
[3] = target: Nup98 (human (endogenous in Jurkat)) (UniProt P52948); test: proximity ligation
[4] = target: T1, Histidine-tagged AQR (UniProt O60306); test: pull-down
T1 sequence: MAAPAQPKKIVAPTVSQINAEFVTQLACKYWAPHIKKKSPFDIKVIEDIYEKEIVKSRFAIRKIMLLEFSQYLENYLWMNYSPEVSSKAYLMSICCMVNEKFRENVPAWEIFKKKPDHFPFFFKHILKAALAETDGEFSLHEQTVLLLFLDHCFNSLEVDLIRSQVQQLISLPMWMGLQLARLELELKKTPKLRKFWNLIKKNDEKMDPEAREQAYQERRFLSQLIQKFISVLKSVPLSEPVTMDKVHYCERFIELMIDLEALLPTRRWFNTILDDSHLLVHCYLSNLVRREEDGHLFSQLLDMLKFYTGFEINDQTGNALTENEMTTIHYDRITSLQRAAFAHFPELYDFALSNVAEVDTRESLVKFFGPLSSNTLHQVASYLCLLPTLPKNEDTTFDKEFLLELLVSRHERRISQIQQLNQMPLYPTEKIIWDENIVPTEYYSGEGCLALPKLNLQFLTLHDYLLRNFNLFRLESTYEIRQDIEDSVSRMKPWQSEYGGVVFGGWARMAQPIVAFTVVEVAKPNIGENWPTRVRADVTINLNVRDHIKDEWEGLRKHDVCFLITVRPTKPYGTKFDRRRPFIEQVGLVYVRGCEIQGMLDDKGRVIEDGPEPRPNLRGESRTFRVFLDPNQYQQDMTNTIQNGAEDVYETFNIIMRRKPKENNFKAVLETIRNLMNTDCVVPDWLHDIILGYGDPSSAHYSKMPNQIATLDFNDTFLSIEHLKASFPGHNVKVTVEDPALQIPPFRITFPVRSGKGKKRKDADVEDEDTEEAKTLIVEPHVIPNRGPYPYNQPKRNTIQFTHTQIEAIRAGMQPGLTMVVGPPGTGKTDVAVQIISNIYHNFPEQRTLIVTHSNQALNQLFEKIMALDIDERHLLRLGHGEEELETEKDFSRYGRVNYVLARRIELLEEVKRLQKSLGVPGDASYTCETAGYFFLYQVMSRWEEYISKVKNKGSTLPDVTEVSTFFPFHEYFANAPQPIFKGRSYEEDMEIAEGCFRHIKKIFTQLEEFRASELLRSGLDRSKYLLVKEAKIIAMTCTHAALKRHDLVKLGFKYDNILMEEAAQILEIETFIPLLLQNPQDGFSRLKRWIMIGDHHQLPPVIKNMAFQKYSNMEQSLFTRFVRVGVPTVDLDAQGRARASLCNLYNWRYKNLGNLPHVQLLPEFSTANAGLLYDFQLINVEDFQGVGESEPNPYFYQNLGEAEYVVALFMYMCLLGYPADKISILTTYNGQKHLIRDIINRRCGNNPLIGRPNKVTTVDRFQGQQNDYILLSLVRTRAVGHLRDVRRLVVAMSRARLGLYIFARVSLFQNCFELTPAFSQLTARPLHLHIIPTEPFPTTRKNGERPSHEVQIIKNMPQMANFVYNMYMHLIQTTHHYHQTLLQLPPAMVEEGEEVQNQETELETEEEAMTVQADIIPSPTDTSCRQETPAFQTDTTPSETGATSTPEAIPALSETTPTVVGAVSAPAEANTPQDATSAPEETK

[5] = target: TPR (human (endogenous in Jurkat)) (UniProt P12270); test: proximity ligation

With TPR (from UniProt P12270 1-2363) the binding [1] was “binds”.
PPIE (from UniProt Q9UNP9 1-301) was tested, and the binding [2] was “binds”.
In the case of DDX39b (from UniProt Q13838 1-428), the binding [1] is reported as “binds”, the binding [3] is reported as “binds” and the binding [2] is reported as “binds”.
For “eGFP:Nup153 (from UniProt P49790 1-1475)”, the binding [4] was “binds”.
With PML (from UniProt P29590 1-882) the binding [5] was “no binding”.
